Laboratory results from patent US6818407B2, “Anti-endotoxic antimicrobial cationic peptides and methods of use therfor” (priority 1998, dated 2004).
Ends that are not written are not given here.

What follows are substances tested on variety of bacteria (Va, As, C621, C587, C610, K799, Z61) (assay: Rank of peptides over the MIC results in Mueller Hinton Broth). Conditions: rank among the ten peptides, 1 = best.
Format: cell-based
For ALWKTMLKKAAHVGKHVGKAALGAAARRRK [DER-M], the Rank was 7.
In the case of ALWKTMLKKAAHVGKHVGKAALTHYL-NH2 [P-DER], the Rank is reported as 3.
For GWGSFFKKAAHVGKHVGKAALGAAARRRK [P-M], the Rank was 5.
“GWGSFFKKAAHVGKHVGKAALTHYL [Peptide P-0, reference compound]” was tested, and the Rank was 6.
GWGSFFKKAAHVGKHVGKAALTHYL-NH2 [P-CN] was tested, and the Rank was 2.
With “KGWGSFFKKAAHVGKHVGKAALTHYL [Peptide P-1]” the Rank was 4.
With “KGWGSFFKKAAHVGKHVGKAALTHYL-NH2 [Peptide P-1-CN]” the Rank was 1.
“RQRVEELSKFSKKGAAARRRK [Peptide M-0, reference compound]” showed a Rank of 10.
SIGSAFKKAAHVGKHVGKAALGAAARRRK [CER-M] showed a Rank of 9.
With SIGSAFKKAAHVGKHVGKAALTHYL-NH2 [P-CER] the Rank was 8.
